# Experimental data published in PubChem BioAssay AID528 (NMMLSC, 2006).
# Protein sequences, listed by entry. Tags and fused reporters are not part of them.
# UniProt P13612, whole entry, looked up: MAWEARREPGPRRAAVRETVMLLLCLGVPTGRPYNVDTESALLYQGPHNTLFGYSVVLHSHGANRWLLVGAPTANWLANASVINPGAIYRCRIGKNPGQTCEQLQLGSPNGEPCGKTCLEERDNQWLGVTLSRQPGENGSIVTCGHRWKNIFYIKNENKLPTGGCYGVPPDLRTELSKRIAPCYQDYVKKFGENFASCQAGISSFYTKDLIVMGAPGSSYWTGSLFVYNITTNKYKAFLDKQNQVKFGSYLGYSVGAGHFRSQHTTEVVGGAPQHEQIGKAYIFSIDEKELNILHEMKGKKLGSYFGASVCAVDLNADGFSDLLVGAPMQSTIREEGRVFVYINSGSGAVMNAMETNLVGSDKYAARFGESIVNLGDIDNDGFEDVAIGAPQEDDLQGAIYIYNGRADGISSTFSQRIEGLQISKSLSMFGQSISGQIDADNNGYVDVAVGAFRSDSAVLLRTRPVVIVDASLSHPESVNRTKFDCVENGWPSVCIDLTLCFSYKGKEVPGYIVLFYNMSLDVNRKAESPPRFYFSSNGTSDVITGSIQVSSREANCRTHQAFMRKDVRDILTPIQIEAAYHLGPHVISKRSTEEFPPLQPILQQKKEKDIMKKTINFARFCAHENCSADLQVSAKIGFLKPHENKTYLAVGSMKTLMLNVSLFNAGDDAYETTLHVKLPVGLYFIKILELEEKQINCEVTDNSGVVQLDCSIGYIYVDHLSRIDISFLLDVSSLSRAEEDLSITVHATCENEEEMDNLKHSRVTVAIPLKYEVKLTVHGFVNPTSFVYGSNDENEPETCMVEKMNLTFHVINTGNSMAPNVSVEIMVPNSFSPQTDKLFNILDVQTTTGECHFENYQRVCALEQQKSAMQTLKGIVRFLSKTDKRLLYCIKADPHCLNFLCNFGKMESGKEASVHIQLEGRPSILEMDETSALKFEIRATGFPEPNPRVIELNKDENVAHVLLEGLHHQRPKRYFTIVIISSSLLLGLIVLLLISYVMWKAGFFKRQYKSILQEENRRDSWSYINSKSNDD
# Out of some 24,000 compounds screened, fewer than 10 were called active. The shares of active, inactive and inconclusive entries below differ from those in the screen.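 How the source made its calls: active means fluorescent ligand binding to cells raised by more than 40% of the manganese-induced maximum; inconclusive means compound's own fluorescence above 85% of the ligand control signal; inactive means the rest.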
# Target: Integrin alpha-4 (Homo sapiens) (UniProt P13612)
# Test: enhancers of LDV-FITC binding to VLA-4 integrin, primary screen, Jurkat cells, flow cytometry (AID 528);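 on activation: 0% = ligand binding without compound and 100% = manganese-stimulated maximal binding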
# Conditions: stronger effect = higher value, screened at 10 µM (by protocol)
row,SMILES,activation
1,S=c1nc2ccccc2c2nc(-c3ccccc3)[nH]n12,inconclusive
2,Oc1[nH]c2ccccc2c1C=NCC1CCCO1 (stereo not given),inactive: 0%
3,CC(C)C(=O)N1c2ccccc2NC2=C(C(=O)CCC2)C1c1ccc(N(C)C)cc1 (stereo not given),inconclusive
4,CCOc1ccccc1C1CC(c2ccc(Br)cc2)Nc2nc(N)nn21 (stereo not given),inactive: 2%
5,CCOC(=O)N1CCC(NC(=O)c2cc(C(=O)Nc3cccc(OC)c3)ccc2CO)CC1,inactive: 3.5%
6,CCOC(=O)N1CCC(NC(=O)C2CCN(Cc3nc(-c4ccc(CC)cc4)oc3C)CC2)CC1,inconclusive
7,COc1ccc(Br)cc1C1CC(=O)N2CN(C)CSC2=C1C#N (stereo not given),inconclusive
8,O=S(=O)(Nc1ccc2c(c1)OCO2)c1ccc(Br)s1,inactive: 0%
9,CCN(CC)c1nc(C#N)nc(N(CC)CC)n1,inconclusive
10,CCOC(=O)CSc1nnc(CNC(=O)c2cc(OC)c(OC)c(OC)c2)n1C,inactive: 1%
11,CC1=C(C(=O)OC(C)C)C(c2ccccn2)n2ncnc2N1 (stereo not given),inactive: -0.5%
12,O=C(NCc1cccnc1)C1c2ccccc2C(=O)N1C1CCCC1 (stereo not given),inactive: 8%
13,COc1nc(OC)nc(N2CCC(C(=O)NCc3cccs3)CC2)n1,inactive: 6%
14,COC(=O)CNc1c(-c2ccccn2)nc2ccc(Br)cn12,inconclusive
15,Cc1oc(-c2ccccc2F)nc1CN1CCC(C(=O)NCc2cccs2)CC1,inconclusive
16,CCOC(=O)CNC(=O)C(Cc1ccccc1)NS(=O)(=O)c1ccc2c(c1)CCC(=O)N2 (stereo not given),inconclusive
17,COC(=O)c1ccc(C2C(C(C)=O)=C(C)Nc3ncnn32)cc1 (stereo not given),inactive: -1%
18,COc1cc2[nH]c(=O)n(CCC(=O)N3CCN(c4cccc(C)c4C)CC3)c(=O)c2cc1OC,inconclusive
19,S=C(NCC1CCCO1)n1nnc2ccccc21 (stereo not given),inactive: -6%
20,CC(C)Cn1c(N)c(C(=O)NCc2cccs2)c2nc3ccccc3nc21,inconclusive
21,COc1ccccc1NC(=O)c1cn(C)c(=O)c2cc(OC)c(OC)cc12,inconclusive
22,O=C(CN1CCN(S(=O)(=O)c2ccc(F)cc2)CC1)Nc1ccccc1F,inactive: -1%
23,O=C(NCCN1CCN(c2ccccc2)CC1)c1cccn2c(=O)c3cc(Cl)ccc3nc12,inconclusive
24,COc1ccc(-c2noc(-c3ccccc3F)n2)cc1,inconclusive
25,COC(=O)c1cc2oc(C)cc2n1CC(=O)Nc1cc(C)cc(C)c1,inactive: 0%

row,SMILES,activation
1,O=C(CCN1C(=O)c2ccncc2C1=O)NCc1ccc(Cl)cc1,inactive: 2%
2,CC(=O)OCCNc1cc(N2CCN(C)CC2)c2noc3c2c1C(=O)c1ccccc1-3,inactive: -6%
3,COc1ccccc1N1CCN(C(CNS(=O)(=O)c2ccccc2)c2cccnc2)CC1 (stereo not given),inconclusive
4,O=C(Nc1ccc2c(c1)OCO2)c1ccc(Br)c(S(=O)(=O)N2CCCC2)c1,inconclusive
5,Cc1cc(NC(=O)CSc2nc3c(c(=O)n2-c2ccc(Br)cc2)SCC3)no1,inconclusive
6,Cc1cc(NCCN(C)C)n2nc(-c3cccs3)cc2n1,inconclusive
7,Cn1c(=O)c(=O)n(C)c2cc(S(=O)(=O)N3CCc4ccccc43)ccc21,inconclusive
8,Brc1cccc(-c2nnc(SCc3ccon3)n2-c2ccccc2)c1,inconclusive
9,O=C(c1ccccc1F)N1CCN(Cc2cccc(Cl)c2)CC1,inactive: -8.5%
10,CC(=O)N1CN(C2CCS(=O)(=O)C2)Cc2c1sc1c2CCCC1 (stereo not given),inconclusive
11,CC1CCCC(NC(=O)CCn2c(=O)oc3ccccc32)C1C (stereo not given),inactive: 4%
12,CCOC(=O)N1CCN(C(=O)c2cnc(Nc3ccccc3OC)c3ccccc23)CC1,inconclusive
13,CCc1ccc(Nc2cc(=O)n(C3CCCCC3)c(=O)[nH]2)cc1,inactive: -4.3%
14,COc1ccc(N(C)S(=O)(=O)c2ccc3c(c2)oc(=O)n3C)cc1,inconclusive
15,Oc1c(CN2CCc3ccccc3C2)cc(Cl)c2cccnc12,inconclusive
16,CCCC1c2ccc(C)n2CCN1C(=O)Nc1ccc(F)cc1 (stereo not given),inconclusive
17,O=C(CCCn1c(=O)[nH]c2ccsc2c1=O)N1CCN(c2ccccn2)CC1,inconclusive
18,CC(NC(=O)Cc1cccs1)C(c1cccs1)N1CCN(c2ccccc2)CC1 (stereo not given),inactive: -4%
19,CN(C)c1nc(N)nc(N(c2ccccc2)c2ccccc2)n1,inactive: 2%
20,O=C(C1CC1)N1CCc2cc(Br)cc(S(=O)(=O)NC3CCCCC3)c21,inconclusive
21,O=C(CSc1nnc(Cn2c(=O)sc3ccccc32)n1-c1ccccc1)N1CCCC1,inconclusive
22,CCN(CC)CCCNC(=O)c1cc(-c2ccc(O)cc2)on1,inactive: 3%
23,CCSc1nnc(Cn2c(=O)sc3ccccc32)n1-c1ccccc1C,inconclusive
24,CC(C)(C)C(=O)N=C1SC2CS(=O)(=O)CC2N1c1ccc2c(c1)OCO2 (stereo not given),inactive: -1%
25,CCOC(=O)CCCCC(=O)c1[nH]c(=O)[nH]c1CSc1nc2ccccc2[nH]1,inactive: 1%

# Reformatted as tab-separated lines: 2 of the compounds above
row	SMILES	activation
1	O=C(CCN1C(=O)c2ccncc2C1=O)NCc1ccc(Cl)cc1	inactive: 2%
2	CC(=O)OCCNc1cc(N2CCN(C)CC2)c2noc3c2c1C(=O)c1ccccc1-3	inactive: -6%
